PubChem BioAssay AID686937, Drosophila RNAi Screening Center | 2013
Test: 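Genes in the fly needed for secretion of protein constitutively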 (primary screen). System: Drosophila S2 cells expressing secreted horseradish peroxidase. Reagent: long dsRNA against Drosophila genes. Time to read-out: about 5.5 days (5 days dsRNA, then 12 h reporter induction). Conditions: reporter expression induced after 5 days of dsRNA, read 12 h later; inducer not stated. Measured: 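Chemiluminescent measurement of peroxidase in the medium 12 h after reporter induction, following 5 days of dsRNA, given as a z-score per plate; higher means more secretion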. Reading the numbers: z-score: higher = more reporter secreted into medium.
In all, the deposit lists about 23,000 reagents; shown is an unselected part of those with a known target gene and a result. 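Reduced-secretion tags in replicate 1 do not always agree with the z-scores; no criterion for assigning the tags was given.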 Names joined by + are all predicted targets of the reagent. Further read-outs or replicates are left out here. The record does not give: the amount of reagent.

gene | amplicon | z-score, replicate 1 | z-score, replicate 2 | z-score, replicate 3
Nepl7 (Neprilysin-like 7) | DRSC02495 | 0.6 | 0.4 | -0.08
tsh (teashirt) | DRSC03740 | -0.01 | 0.12 | –
Obp8a (Odorant-binding protein 8a) | DRSC17868 | 0.45 | 0.12 | –
RpL31 (Ribosomal protein L31) | DRSC06716 | -3.48 | -4.09 | –
Or22c (Odorant receptor 22c) | DRSC00766 | 0.11 | 0.36 | –
Csgalnact (Chondroitin sulfate N-acetylgalactosaminyltransferase) | DRSC06228 | 0.2 | 0.02 | –
CG14676 | DRSC12262 | 0.33 | 0.19 | –
CG6765 | DRSC10706 | 0.02 | 0.28 | –
rod (rough deal) | DRSC17047 | 0.13 | 0.33 | –
CG4629 | DRSC00659 | 0.14 | 0.05 | –
MCPH1 (Microcephalin) | DRSC06309 | 0.4 | 0.29 | –
MCPH1 (Microcephalin) | DRSC07308 | 0.39 | 0.46 | –
MCPH1 (Microcephalin) | DRSC22536 | 0.09 | -0.16 | –
CG1889 | DRSC18195 | 0.32 | 0.53 | –
CG43740 | DRSC17848 | -0.01 | -0.67 | –
CG43740 | DRSC17994 | 0.48 | 0.46 | –
wrd (well-rounded) | DRSC16337 | -3.81 | -4.97 | –
wrd (well-rounded) | DRSC16344 | 0.43 | 0.48 | –
sigmar (salivary glands marred) | DRSC04449 | 0.02 | 0.08 | –
CG15369 | DRSC18041 | 0.47 | 0.75 | –
eya (eyes absent) | DRSC03510 | 0.23 | 0.27 | –
Shrm (Shroom) | DRSC06437 | -0.02 | 0.11 | –
Shrm (Shroom) | DRSC06438 | 0.15 | 0.16 | –
Shrm (Shroom) | DRSC07221 | 0.48 | 0.41 | –
Cdk5 (Cyclin-dependent kinase 5) | DRSC07359 | 0.55 | 0.42 | –
Upf2 | DRSC18218 | 0.55 | 0.86 | –
Cp16 (Chorion protein 16) | DRSC11119 | 0.24 | 0.13 | –
PK2-R2 (Pyrokinin 2 receptor 2) | DRSC16448 | 0.48 | 0.62 | –
CG14563 | DRSC11724 | 0.19 | 0.25 | –
CG34188 | DRSC05549 | 0.32 | 0.16 | –
ppk19 (pickpocket 19) | DRSC15321 | 0.31 | 0.36 | –
Ggamma30A (G protein gamma subunit 30A) | DRSC02715 | 0.06 | 0.06 | –
Ggamma30A (G protein gamma subunit 30A) | DRSC03331 | 0.13 | 0.22 | –
CG17780 + CG17781 | DRSC15266 | 0.12 | 0.16 | –
cato (cousin of atonal) | DRSC07589 | 0.37 | 0.11 | –
Cpr11B (Cuticular protein 11B) | DRSC19859 | -0.11 | 0.3 | –
CG4744 | DRSC06887 | 0.27 | 0.27 | –
CG42535 | DRSC09041 | -0.07 | 0.15 | –
Prx2 (Peroxiredoxin 2) | DRSC20256 | 0.25 | -0.32 | –
CenB1A (Centaurin beta 1A) | DRSC16923 | 0.27 | 0.05 | -0.48
CG15209 | DRSC19655 | 0.51 | 0.5 | –
Dlg5 (Discs large 5) | DRSC02964 | -0.45 | -0.07 | –
CG18294 + 825-Oak + CG32214 + 2 more | DRSC22210 | 0.23 | 0.59 | –
Hdc (Histidine decarboxylase) | DRSC07439 | 0.25 | 0.3 | –
spn-A (spindle A) | DRSC16812 | -0.09 | 0.08 | –
Obp51a (Odorant-binding protein 51a) | DRSC22412 | -0.27 | -0.18 | –

An excerpt of the results above, for reference:
gene | amplicon | z-score, replicate 1 | z-score, replicate 2 | z-score, replicate 3
Prx2 (Peroxiredoxin 2) | DRSC20256 | 0.25 | -0.32 | –
CenB1A (Centaurin beta 1A) | DRSC16923 | 0.27 | 0.05 | -0.48
CG15209 | DRSC19655 | 0.51 | 0.5 | –
Dlg5 (Discs large 5) | DRSC02964 | -0.45 | -0.07 | –
CG18294 + 825-Oak + CG32214 + 2 more | DRSC22210 | 0.23 | 0.59 | –
Hdc (Histidine decarboxylase) | DRSC07439 | 0.25 | 0.3 | –

More entries follow:
gene | amplicon | z-score, replicate 1 | z-score, replicate 2 | z-score, replicate 3
l(1)G0020 (lethal (1) G0020) | DRSC18198 | 0.17 | -0.93 | –
CG8001 | DRSC08611 | 0.08 | 0.03 | –
CG9114 | DRSC20155 | 0.26 | 0.49 | –
CG42326 | DRSC06483 | 0.2 | 0.3 | –
CG42326 | DRSC06484 | 0.21 | 0.17 | –
tgy (twiggy) | DRSC20045 | 0.27 | 0.27 | –
CG14147 | DRSC10149 | 0.22 | 0.23 | –
fzr2 (fizzy-related 2) | DRSC04280 | 0.34 | 0.44 | –
Ncoa6 (Nuclear receptor coactivator 6) | DRSC02353 | -2.39 | -1.31 | –
CG44251 | DRSC06856 | 0.21 | 0.06 | –
CG7271 | DRSC22561 | -0.28 | 0.3 | –
Ublcp1 | DRSC14149 | -0.31 | -0.49 | –
usp (ultraspiracle) | DRSC18847 | 0.46 | 0.51 | –
PIP4K (Phosphatidylinositol 5-phosphate 4-kinase) | DRSC17213 | 0.44 | 0.39 | –
Hpd (4-hydroxyphenylpyruvate dioxygenase) | DRSC11670 | 0.19 | 0.3 | –
Secp43 (tRNA Selenocysteine associated protein) | DRSC00454 | -0.03 | 0.18 | –
CG11436 | DRSC17783 | 0.34 | 0.27 | –
Gbp3 (Growth-blocking peptide 3) | DRSC15206 | 0.28 | 0.35 | –
mRpS33 (mitochondrial ribosomal protein S33) | DRSC14239 | -0.03 | -0.55 | –
Chi (Chip) | DRSC04602 | 0.27 | 0.19 | –
CG10365 | DRSC14234 | 0.35 | 0.31 | –
CG14414 | DRSC19599 | 0.28 | 0.6 | –
CG3505 | DRSC15489 | 0.3 | 0.26 | –
Dscam1 (Down syndrome cell adhesion molecule 1) | DRSC05047 | -0.07 | – | –
Dscam1 (Down syndrome cell adhesion molecule 1) | DRSC05048 | -1.08 | – | –
Dscam1 (Down syndrome cell adhesion molecule 1) | DRSC07407 | 0.18 | 0.33 | –
Dscam1 (Down syndrome cell adhesion molecule 1) | DRSC21562 | -0.03 | -0.5 | –
Dscam1 (Down syndrome cell adhesion molecule 1) | DRSC22383 | 0.19 | 0.41 | –
inaD (inactivation no afterpotential D) | DRSC04694 | 0.23 | 0.26 | –
CG32055 | DRSC10666 | 0.18 | 0.09 | –
l(3)04053 (lethal (3) 04053) | DRSC11640 | -1.11 | 0.22 | 0.32
Mid1 | DRSC04230 | -0.01 | -0.42 | -0.37
Mid1 | DRSC04231 | 0.32 | 0.27 | –
Mid1 | DRSC04308 | 0.04 | -0.03 | –
Mid1 | DRSC22773 | -0.69 | -0.19 | –
Mid1 | DRSC22803 | 0 | 0.32 | –
